Publication PMC12362409
These are yes or no findings as the source states them, for the method shown. In cells and extracts the contact can be indirect. Tags and fused reporters may be left off the sequences shown.

By UniProt entry, the sequences of proteins in these tests, tags left out.
UniProt O00463: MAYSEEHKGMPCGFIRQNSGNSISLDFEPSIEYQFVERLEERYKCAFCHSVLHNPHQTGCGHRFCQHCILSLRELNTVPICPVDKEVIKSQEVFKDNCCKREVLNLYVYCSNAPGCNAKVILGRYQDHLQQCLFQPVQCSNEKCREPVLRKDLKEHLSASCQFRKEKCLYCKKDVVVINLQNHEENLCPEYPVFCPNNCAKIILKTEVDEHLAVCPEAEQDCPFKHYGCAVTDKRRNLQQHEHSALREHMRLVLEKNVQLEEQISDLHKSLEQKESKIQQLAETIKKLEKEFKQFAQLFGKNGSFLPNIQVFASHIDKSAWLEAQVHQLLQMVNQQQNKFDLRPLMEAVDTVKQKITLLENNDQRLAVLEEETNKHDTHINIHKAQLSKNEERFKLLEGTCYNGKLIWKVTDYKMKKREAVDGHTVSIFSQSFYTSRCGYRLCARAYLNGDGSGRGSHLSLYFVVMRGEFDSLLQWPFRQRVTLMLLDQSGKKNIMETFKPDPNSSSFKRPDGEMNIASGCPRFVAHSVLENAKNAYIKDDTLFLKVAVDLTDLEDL

Biological target: T1, Myc-tagged WT mouse MAVS (mitochondrial antiviral-signaling protein) (mouse) (UniProt Q8VCF0)
T1 sequence: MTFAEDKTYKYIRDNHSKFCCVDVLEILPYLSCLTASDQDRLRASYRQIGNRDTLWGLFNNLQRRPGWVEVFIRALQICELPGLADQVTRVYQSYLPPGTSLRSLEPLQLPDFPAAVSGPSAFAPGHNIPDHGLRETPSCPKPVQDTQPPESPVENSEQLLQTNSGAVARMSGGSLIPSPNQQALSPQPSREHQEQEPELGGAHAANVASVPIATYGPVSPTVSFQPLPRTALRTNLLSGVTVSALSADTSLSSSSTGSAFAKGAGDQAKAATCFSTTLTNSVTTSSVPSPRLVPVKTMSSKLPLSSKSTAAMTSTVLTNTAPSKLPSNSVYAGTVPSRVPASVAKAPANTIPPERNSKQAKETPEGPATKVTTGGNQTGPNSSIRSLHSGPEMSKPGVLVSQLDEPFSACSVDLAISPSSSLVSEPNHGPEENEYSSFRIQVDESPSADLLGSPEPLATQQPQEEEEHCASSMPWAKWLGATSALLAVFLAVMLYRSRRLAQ
Experiment: co-IP; association of MAVS WT with TRAF5 or TRAF6 examined 'in our system'; no figure, no details given

binding: no binding
Substance: TRAF5 (from UniProt O00463 1-557)
